Laboratory results as given in PubChem BioAssay AID192 (DTP/NCI, 2004).
The list does not hold the whole screen: it gathers tests that were run many times, whatever their T/C, doses with no T/C, and many T/C values between a quarter and a half above the control. Other doses and runs of a compound stand elsewhere. T/C is the treated group as % of the vehicle group. Some doses have a count of surviving animals in place of a T/C: the source files T/C as zero there, which appears to mark a toxic dose or a test without result, not a measured value. Some survivor counts are full or nearly so, which does not show that the dose was tolerated: survival well below the control is almost never listed, so the zero probably covers shortened survival too. Survivors were counted at the toxicity check, usually on the fifth day, unless a day is given; later deaths do not show. Schedules are NCI's codes, read here as Q, the interval in days (D) or hours (H), X, the number of doses. Some molecules as drawn cover several salts, stereoisomers or complexes of the source; a dose is that of the sample tested. Some doses were run more than once; their values stand side by side, smallest first. Additions like (4×) stand for listed records that agree. For survival time, the PubChem record calls one and a half times the control and up active, and a quarter to a half above the control has no call in these data; cut-offs in other NCI protocols can differ. Some T/C values are followed by the survivors on the day toxicity was checked, most often the fifth; where none is given, no animal had died by that day.

Tested on: BDF1 mice, B16 melanoma ip, median survival T/C
Assay: NCI In Vivo Anticancer Drug Screen. Data for tumor model B16 Melanoma (intraperitoneal) in B6D2F1 (BDF1) mice
Details: T/C endpoint: median survival time, higher T/C = longer survival
Method in brief: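 Transplantable tumor model; survival or tumor size measured; reported as T/C, treated over vehicle control.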

[1] = dose: 150.0 mg/kg/injection, schedule: Q01DX001 (ip), vehicle: Klucel (hydroxypropylcellulose) (HPC)

O=C1c2ccccc2C(=O)c2c(NCCNCCO)ccc(NCCNCCO)c21
survivor count (dose: 32.0 mg/kg/injection, schedule: Q03HX008 (ip), vehicle: acid diluted with saline): 4 of 10 | survivor count (dose: 32.0 mg/kg/injection, schedule: Q03HX008 (ip), vehicle: saline): 4 of 10 | survivor count (dose: 32.0 mg/kg/injection, schedule: Q03HX016 (ip), vehicle: acid diluted with saline): 3 of 10 | survivor count (dose: 32.0 mg/kg/injection, schedule: Q03HX024 (ip), vehicle: acid diluted with saline): 4 of 10 | T/C (dose: 32.0 mg/kg/injection, schedule: Q08DX002 (ip), vehicle: saline): 146 % of control | survivor count (dose: 62.5 mg/kg/injection, schedule: Q01DX009 (ip), vehicle: Klucel (hydroxypropylcellulose) (HPC)): 10 of 10 | survivor count (dose: 64.0 mg/kg/injection, schedule: Q01DX005 (ip), vehicle: acid diluted with saline): 10 of 10 | survivor count (dose: 64.0 mg/kg/injection, schedule: Q01DX005 (ip), vehicle: saline): 10 of 10 | survivor count (dose: 64.0 mg/kg/injection, schedule: Q01DX005 (iv), vehicle: saline): 2 of 10 | survivor count (dose: 64.0 mg/kg/injection, schedule: Q01DX009 (ip), vehicle: Klucel (hydroxypropylcellulose) (HPC)): 10 of 10 | survivor count (dose: 64.0 mg/kg/injection, schedule: Q01DX009 (ip), vehicle: acid diluted with saline): 8 of 10 | survivor count (dose: 64.0 mg/kg/injection, schedule: Q01DX009 (ip), vehicle: saline with Tween-80): 9 of 10 | survivor count (dose: 64.0 mg/kg/injection, schedule: Q01DX009 (ip), vehicle: saline): 6 of 10, 7 of 10, 9 of 10, 10 of 10 (2×) | survivor count (dose: 64.0 mg/kg/injection, schedule: Q01DX009 (ip), vehicle: water): 5 of 10 and 10 of 10 | survivor count (dose: 64.0 mg/kg/injection, schedule: Q01DX009 (sc), vehicle: acid diluted with saline): 10 of 10 | survivor count (dose: 64.0 mg/kg/injection, schedule: Q01DX009 (sc), vehicle: saline): 10 of 10 | survivor count (dose: 64.0 mg/kg/injection, schedule: Q02DX009 (ip), vehicle: saline with Tween-80): 8 of 10 | survivor count (dose: 64.0 mg/kg/injection, schedule: Q02DX009 (ip), vehicle: saline): 7 of 10 | survivor count (dose: 64.0 mg/kg/injection, schedule: Q03HX008 (ip), vehicle: acid diluted with saline): 0 of 10 | survivor count (dose: 64.0 mg/kg/injection, schedule: Q04DX003 (ip), vehicle: acid diluted with saline): 10 of 10 | T/C (dose: 75.0 mg/kg/injection, schedule: Q01DX001 (ip), vehicle: Klucel (hydroxypropylcellulose) (HPC)): 104 [8 of 10 alive], 114 [7 of 10 alive], 141, 173 % of control | survivor count (dose: 100.0 mg/kg/injection, schedule: Q01DX001 (ip), vehicle: water): 8 of 10 | survivor count (dose: 125.0 mg/kg/injection, schedule: Q01DX009 (ip), vehicle: Klucel (hydroxypropylcellulose) (HPC)): 10 of 10 | survivor count (dose: 128.0 mg/kg/injection, schedule: Q01DX001 (ip), vehicle: acid diluted with saline): 5 of 10 | survivor count (dose: 128.0 mg/kg/injection, schedule: Q01DX001 (ip), vehicle: saline): 8 of 10 | T/C (dose: 128.0 mg/kg/injection, schedule: Q01DX001 (sc), vehicle: acid diluted with saline): 127 % of control | survivor count (dose: 128.0 mg/kg/injection, schedule: Q01DX005 (ip), vehicle: acid diluted with saline): 0 of 10 | survivor count (dose: 128.0 mg/kg/injection, schedule: Q01DX005 (iv), vehicle: saline): 0 of 10 | survivor count (dose: 128.0 mg/kg/injection, schedule: Q01DX009 (ip), vehicle: Klucel (hydroxypropylcellulose) (HPC)): 6 of 10 | survivor count (dose: 128.0 mg/kg/injection, schedule: Q01DX009 (ip), vehicle: water): 9 of 10 | survivor count (dose: 128.0 mg/kg/injection, schedule: Q02DX009 (ip), vehicle: saline with Tween-80): 3 of 10 | survivor count (dose: 128.0 mg/kg/injection, schedule: Q02DX009 (ip), vehicle: saline): 10 of 10 | survivor count (dose: 128.0 mg/kg/injection, schedule: Q04DX003 (ip), vehicle: acid diluted with saline): 2 of 10 | survivor count (dose: 128.0 mg/kg/injection, schedule: Q04DX003 (ip), vehicle: saline): 10 of 10 | survivor count (dose: 128.0 mg/kg/injection, schedule: Q08DX002 (ip), vehicle: acid diluted with saline): 5 of 10 | T/C [1]: 144 and 167 % of control [9 of 10 alive] | survivor count [1]: 2 of 10 and 8 of 10 | survivor count (dose: 200.0 mg/kg/injection, schedule: Q01DX001 (ip), vehicle: water): 3 of 10 | survivor count (dose: 256.0 mg/kg/injection, schedule: Q01DX001 (ip), vehicle: acid diluted with saline): 1 of 10 | T/C (dose: 256.0 mg/kg/injection, schedule: Q01DX001 (sc), vehicle: acid diluted with saline): 136 % of control [9 of 10 alive] | survivor count (dose: 256.0 mg/kg/injection, schedule: Q01DX009 (oral), vehicle: acid diluted with saline): 10 of 10 | survivor count (dose: 256.0 mg/kg/injection, schedule: Q01DX009 (oral), vehicle: saline): 10 of 10 | survivor count (dose: 256.0 mg/kg/injection, schedule: Q04DX003 (ip), vehicle: acid diluted with saline): 0 of 10 | survivor count (dose: 256.0 mg/kg/injection, schedule: Q08DX002 (ip), vehicle: acid diluted with saline): 0 of 10 | survivor count (dose: 300.0 mg/kg/injection, schedule: Q01DX001 (ip), vehicle: Klucel (hydroxypropylcellulose) (HPC)): 0 of 10, 7 of 10, 10 of 10 | survivor count (dose: 400.0 mg/kg/injection, schedule: Q01DX001 (ip), vehicle: water): 0 of 10 | survivor count (dose: 512.0 mg/kg/injection, schedule: Q01DX001 (ip), vehicle: acid diluted with saline): 0 of 10 | survivor count (dose: 512.0 mg/kg/injection, schedule: Q01DX001 (oral), vehicle: acid diluted with saline): 6 of 10 | survivor count (dose: 512.0 mg/kg/injection, schedule: Q01DX001 (sc), vehicle: acid diluted with saline): 5 of 10 | survivor count (dose: 600.0 mg/kg/injection, schedule: Q01DX001 (ip), vehicle: Klucel (hydroxypropylcellulose) (HPC)): 0 of 10 and 10 of 10 | survivor count (dose: 1024.0 mg/kg/injection, schedule: Q01DX001 (oral), vehicle: acid diluted with saline): 8 of 10 | survivor count (dose: 1200.0 mg/kg/injection, schedule: Q01DX001 (ip), vehicle: Klucel (hydroxypropylcellulose) (HPC)): 0 of 10 and 10 of 10
